Assay results published in patent US11202833B2, “Methylglyoxal-scavenging cyclic peptides and their use for the prevention and treatment of diseases associated with elevated methylglyoxal levels” (RUPRECHT-KARLS-UNIVERSITÄT HEIDELBERG, priority 2016, dated 2021).
At least one peptide structure holds a part that was inferred or is arguable (an end, a ring closure or a residue). Bridge positions count the residues as written; N and C are the ends. Peptide text beside a SMILES is read from it. * marks the point of attachment. Myristoyl = CCCCCCCCCCCCCC(=O)*

Columns and labels:
[1] = Detection of MG-modified scavenger peptides by LC-MS/MS in plasma of a type 2 diabetes patient spiked with the peptide; parameters: species or system human
[2] = MG plasma levels after MG injection; format: in vivo, C57BL/6 mice; settings: peptide i.p. 0.25 mg/mouse 30 min prior to MG i.v. 5 μg/g; plasma 30 min after MG
[3] = Detection of MG-modified scavenger peptides by LC-MS/MS in mouse plasma; format: in vivo; settings: mice which received the peptide prior to MG injection; 3 h after MG

CCCCCCCCCCCCCC(=O)NCCCC[C@@H]1NC(=O)CC[C@@H](C(=O)O)NC(=O)[C@H](CCCNC(=N)N)NC(=O)[C@H](CCCNC(=N)N)NC(=O)[C@H](CCCNC(=N)N)NC(=O)[C@H](CCCNC(=N)N)NC1=O [CycK(Myr)R4E] (K(Myristoyl)RRRRE-OH; lactam N-6)
MG scavenging (MG-adducts incl. #4) in patient plasma [1]: Scavenging was also observed | MG plasma levels [2]: lowered | MG-H1 modified peptides (MG-adducts #1-3) in plasma [3]: detectable
